Data reported in patent US20260021082A1, “EZH2 INHIBITION THERAPIES FOR THE TREATMENT OF AT-RICH INTERACTIVE DOMAIN-CONTAINING PROTEIN 1A (ARID1A) MUTATED CANCERS” (Constellation Pharmaceuticals, Inc., priority 2022, published 2026).
At least one compound was matched to its structure with a doubt left. Some results were stated once for a whole list of compounds, not compound by compound.

How the values were obtained:
[1] = test system: ARID1A mutant HT1376 bladder cancer xenografts; assay: HT1376 xenograft tumor growth inhibition; assay type: in vivo, mice; settings: ARID1A mutated HT1376 xenograft, 75 mg/kg QD; for tumor growth inhibition (TGI) compared to vehicle: day 27
Experimental: Data represented as mean tumor volume+SEM, with n=5 mice per group for all groups except 150 mg/kg, which had n=3. P-values calculated using 2-way ANOVA up to day 30, ns=p>0.05, *p<0.05. […]
Cell line derived xenograft tumor experiments were performed at WuXi AppTec, Shanghi, China. Patient derived xenograft experiments were performed at Crown BioScience Inc., Taicang Jiangsu Province, China, or Champions Oncology, Rockville, MD, US. All the procedures related to animal handling, care and the treatment in the xenograft studies were performed according to the guidelines approved by the Institutional Animal Care and Use Committee (IACUC) of WuXi AppTec or Crown BioScience Inc. following the guidance of the Association for Assessment and Accreditation of Laboratory Animal Care (AAALAC). The mice were kept in individual ventilation cages at constant temperature and humidity with 3-5 animals in each cage. Mice were checked daily for any effects of tumor growth and/or treatments on normal behavior such as mobility, food and water consumption, body weight gain/loss, eye, and any other abnormal effects. […] Animal body weight was monitored regularly as an indirect measurement of toxicity. Supplemented diet was provided after cell inoculation for all groups to help with body weight maintenance. If an animal lost >15% body weight, their treatments were suspended accordingly then resumed when body weight loss returned to <10%.
The HT1376 and HT1197 bladder cancer cell lines and Karpas-422 lymphoma cell line were expanded in vitro under routine subculturing procedures in the medium recommended by the supplier, harvested while in the exponential growth phase, and counted for tumor inoculation. For HT1376 and Karpas-422 studies, female CB17 SCID mice at 6-8 weeks of age were used for study initiation; for the HT1197 study, female Balb/c nude mice at 6-8 weeks of age were used. Each mouse was inoculated subcutaneously in the right flank with tumor cells in 0.2 ml PBS mixed with Matrigel (BD Biosciences); 5×10^6 cells per injection were used for HT1376 and Karpas-422 cell lines and 1×10^7 cells per injection for HT1197 cells. […]
Tumor size was measured thrice weekly in two dimensions using a caliper, and the volume was expressed in mm3 using the formula: V=0.5a×b2 where a and b are the long and short diameters of the tumor, respectively. TGI was calculated for each group using the formula: TGI (%)=[1−(Ti−T0)/(Vi−V0)]×100; Ti is the average tumor volume of a treatment group on a certain day, T0 is the average tumor volume of the treatment group on the day of treatment start, Vi is the average tumor volume of the vehicle control group on the same day with Ti, and V0 is the average tumor volume of the vehicle group on the day of treatment start. […]

[2] = long-term cell viability assays in vitro, comparison of PRC2 inhibitors; assay type: cell-based
Experimental: Response of Compound 1 treatment relative to other EZH2, dual EZH1 and EZH2, or EED inhibitors was analyzed in vitro and in vivo.

| Structure (SMILES) | tumor growth inhibition (TGI) compared to vehicle [1] [%] | fold less potent than Compound 1 (GI50) [2] | tumor volume course during treatment [1] |
| --- | --- | --- | --- |
| COC1CN([C@H]2CC[C@H]([C@@]3(C)Oc4c(Cl)cc(C(=O)NCc5c(SC)cc(C)[nH]c5=O)c(C)c4O3)CC2)C1 [Compound 1, (R)-7-chloro-2-((1r,4R)-4-(3-methoxyazetidin-1-yl)cyclohexyl)-2,4-dimethyl-N-((6-methyl-4-(methylthio)-2-oxo-1,2-dihydropyridin-3-yl)methyl)benzo[d][1,3]dioxole-5-carboxamide] | > 50 | – | – |
| Cc1ncccc1-c1cnc(NCc2c(F)ccc3c2CCO3)n2cnnc12 [MAK683] | > 50 | 3-10 fold | – |
| CCN(c1cc(-c2ccc(CN3CCOCC3)cc2)cc(C(=O)NCc2c(C)cc(C)[nH]c2=O)c1C)C1CCOCC1 [tazemetostat] | – | – | increase in volume during treatment |
| Cc1cc(C)c(CNC(=O)c2cc(Cl)c3c(c2C)O[C@@](C)([C@H]2CC[C@H](N(C)C)CC2)O3)c(=O)[nH]1 [valemetostat] | > 50 | 3-10 fold | – |
